{"source": "PubChem BioAssay AID1508600", "about": "(Functional Genomics Laboratory (NCATS/FGL), 2020)", "note": "The campaign covered roughly 53,000 sequences. About 3,700 (7%) were called active.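 Rule for the calls: active = gene knockdowns whose robust z-score for IL-1 alpha signal is at least 2 or at most -2, so actives lie on both sides; inactive = the rest.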 The list shows a part of the results."}
{"experiment": "Components of the Cytosolic LPS Sensing Pathway: Gene Identification via Genome-wide siRNA Screen;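 note: robust z of the log signal after scaling to non-targeting control siRNA wells of the plate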", "details": "RAW264.7 macrophages, IL-1a HTRF, actives lie on both sides, screened at 100 nM (by protocol), cells primed 5 h with Pam3CSK4 first", "procedure,_shortened": "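Mouse macrophage line RAW264.7 is transfected with siRNA (100 nM final), grown 48h, primed with TLR ligand Pam3CSK4 5 h and given intracellular LipidA 24 h. IL-1a in supernatant is read by HTRF and viability by luminescence.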"}
{"sequence": "GGAAGAAGAACCAAAGCCCTT against Sarnp", "z-score": "inactive: -1.09"}
{"sequence": "GGUGAAAUGAGAAUACUUGTT against Erap1", "z-score": "inactive: 1.07"}
{"sequence": "GCUUCUGCUAUAUGUGCAGTT against Rnf186", "z-score": "inactive: 1.44"}
{"sequence": "CGAAUUAUCAAUAAGCACATT against Mettl3", "z-score": "inactive: 0.118"}
{"sequence": "GGUUCUGGACAGAUGCUGUTT against Nags", "z-score": "inactive: 1.17"}
{"sequence": "GCAGCAGUGAAAUAGCUUCTT against Eya1", "z-score": "inactive: -0.643"}
{"sequence": "CCCAAGAUGGUAGCAGACATT against Tbxas1", "z-score": "inactive: -0.00814"}
{"sequence": "CCUAAGUUCCUGAAAAUAUTT against Epha5", "z-score": "inactive: -0.454"}
{"sequence": "GGAAAUAUAUCUCUAUCUCTT against Xylt2", "z-score": "inactive: 0.669"}
{"sequence": "GGUAAUGUACCUAAUAUUGTT against Cnn1", "z-score": "inactive: 0.307"}
{"sequence": "GCCCUCAACCAUAAUUCAATT against Zscan21", "z-score": "active: 2.15"}
{"sequence": "GUCAGAGCCUCUGUCUUUUTT against Olfr342", "z-score": "inactive: 0.877"}
{"sequence": "CCUACUAGAAACUUCCUGATT against Cgrrf1", "z-score": "inactive: -0.965"}
{"sequence": "CCGAAGCACUUGCUGGUAUTT against Cerk", "z-score": "inactive: 1.95"}
{"sequence": "CCCAAAGCUCUUGCUACUUTT against Olfr823", "z-score": "inactive: -1.01"}
{"sequence": "GGAAUGAAAGAGAAAGAUUTT against Klhl9", "z-score": "inactive: -1.74"}
{"sequence": "GCUUUAUCCACAGGUGCCATT against Olfr1350", "z-score": "inactive: -1.9"}
{"sequence": "GGAAGCCCUUUCCGUCCUUTT against Tacc2", "z-score": "inactive: 0.115"}
{"sequence": "GGGCAUCUCUCAGCAAUGATT against Asb10", "z-score": "inactive: -0.659"}
{"sequence": "GUCUAUCCAGCAUCCUUGCTT against Klk8", "z-score": "inactive: -1.55"}
{"sequence": "GGUGAAGCCAGUUUCUUUATT against Traf3ip2", "z-score": "inactive: 0.107"}
{"sequence": "GGACAACCUUUACUUCUCUTT against Rhox9", "z-score": "active: -2.78"}
{"sequence": "GGCAUGCCUGUUGCUAUGATT against Cyp3a44", "z-score": "inactive: 0.182"}
{"sequence": "GGAGUUUAUGUGAGUGGCATT against Olfr170", "z-score": "inactive: -0.134"}
{"sequence": "GGAAAGCUUAGGAAUUACUTT against Vps37a", "z-score": "inactive: 0.273"}
{"sequence": "GGUCACAGAUCGGAAUAUGTT against 4931428F04Rik", "z-score": "inactive: -0.309"}
{"sequence": "GGCUGACCUACAUUAGCAATT against Tas1r2", "z-score": "inactive: -0.638"}
{"sequence": "GGCUGGAAUACAGUAAUUCTT against Opn1sw", "z-score": "inactive: 0.352"}
{"sequence": "GCAUUCAUGUGCUCUGCCCTT against Ifitm6", "z-score": "inactive: -0.952"}
